For this assay, the target named is T1, GCM1-Flag (human) (UniProt Q9NP62).
T1 sequence: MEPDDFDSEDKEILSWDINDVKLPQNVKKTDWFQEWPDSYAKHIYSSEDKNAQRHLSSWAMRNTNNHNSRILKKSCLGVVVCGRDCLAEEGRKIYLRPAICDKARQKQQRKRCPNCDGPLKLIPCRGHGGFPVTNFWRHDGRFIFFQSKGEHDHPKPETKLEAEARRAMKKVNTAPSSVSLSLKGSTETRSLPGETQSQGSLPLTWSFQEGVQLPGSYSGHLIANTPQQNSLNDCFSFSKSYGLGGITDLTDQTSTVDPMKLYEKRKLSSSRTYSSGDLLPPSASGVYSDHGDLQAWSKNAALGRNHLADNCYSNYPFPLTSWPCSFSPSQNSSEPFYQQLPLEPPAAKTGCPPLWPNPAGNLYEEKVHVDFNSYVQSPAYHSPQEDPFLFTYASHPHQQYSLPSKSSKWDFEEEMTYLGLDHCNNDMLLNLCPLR
Description: co-IP; anti-Flag M2 beads (80 ul) with 1 mg whole-cell lysate of ST cells expressing dox-inducible GCM1-Flag or empty vector; Hunt buffer (20 mM Tris/HCl pH 8.0, 100 mM NaCl, 1 mM EDTA, 0.5% NP-40), overnight at 4°C; TBS washes; western blot. A general note: Immunoblotting shows a protein as a band on a membrane.

Protein sequences, listed by entry. Tags and fused reporters are not part of them.
UniProt P51532: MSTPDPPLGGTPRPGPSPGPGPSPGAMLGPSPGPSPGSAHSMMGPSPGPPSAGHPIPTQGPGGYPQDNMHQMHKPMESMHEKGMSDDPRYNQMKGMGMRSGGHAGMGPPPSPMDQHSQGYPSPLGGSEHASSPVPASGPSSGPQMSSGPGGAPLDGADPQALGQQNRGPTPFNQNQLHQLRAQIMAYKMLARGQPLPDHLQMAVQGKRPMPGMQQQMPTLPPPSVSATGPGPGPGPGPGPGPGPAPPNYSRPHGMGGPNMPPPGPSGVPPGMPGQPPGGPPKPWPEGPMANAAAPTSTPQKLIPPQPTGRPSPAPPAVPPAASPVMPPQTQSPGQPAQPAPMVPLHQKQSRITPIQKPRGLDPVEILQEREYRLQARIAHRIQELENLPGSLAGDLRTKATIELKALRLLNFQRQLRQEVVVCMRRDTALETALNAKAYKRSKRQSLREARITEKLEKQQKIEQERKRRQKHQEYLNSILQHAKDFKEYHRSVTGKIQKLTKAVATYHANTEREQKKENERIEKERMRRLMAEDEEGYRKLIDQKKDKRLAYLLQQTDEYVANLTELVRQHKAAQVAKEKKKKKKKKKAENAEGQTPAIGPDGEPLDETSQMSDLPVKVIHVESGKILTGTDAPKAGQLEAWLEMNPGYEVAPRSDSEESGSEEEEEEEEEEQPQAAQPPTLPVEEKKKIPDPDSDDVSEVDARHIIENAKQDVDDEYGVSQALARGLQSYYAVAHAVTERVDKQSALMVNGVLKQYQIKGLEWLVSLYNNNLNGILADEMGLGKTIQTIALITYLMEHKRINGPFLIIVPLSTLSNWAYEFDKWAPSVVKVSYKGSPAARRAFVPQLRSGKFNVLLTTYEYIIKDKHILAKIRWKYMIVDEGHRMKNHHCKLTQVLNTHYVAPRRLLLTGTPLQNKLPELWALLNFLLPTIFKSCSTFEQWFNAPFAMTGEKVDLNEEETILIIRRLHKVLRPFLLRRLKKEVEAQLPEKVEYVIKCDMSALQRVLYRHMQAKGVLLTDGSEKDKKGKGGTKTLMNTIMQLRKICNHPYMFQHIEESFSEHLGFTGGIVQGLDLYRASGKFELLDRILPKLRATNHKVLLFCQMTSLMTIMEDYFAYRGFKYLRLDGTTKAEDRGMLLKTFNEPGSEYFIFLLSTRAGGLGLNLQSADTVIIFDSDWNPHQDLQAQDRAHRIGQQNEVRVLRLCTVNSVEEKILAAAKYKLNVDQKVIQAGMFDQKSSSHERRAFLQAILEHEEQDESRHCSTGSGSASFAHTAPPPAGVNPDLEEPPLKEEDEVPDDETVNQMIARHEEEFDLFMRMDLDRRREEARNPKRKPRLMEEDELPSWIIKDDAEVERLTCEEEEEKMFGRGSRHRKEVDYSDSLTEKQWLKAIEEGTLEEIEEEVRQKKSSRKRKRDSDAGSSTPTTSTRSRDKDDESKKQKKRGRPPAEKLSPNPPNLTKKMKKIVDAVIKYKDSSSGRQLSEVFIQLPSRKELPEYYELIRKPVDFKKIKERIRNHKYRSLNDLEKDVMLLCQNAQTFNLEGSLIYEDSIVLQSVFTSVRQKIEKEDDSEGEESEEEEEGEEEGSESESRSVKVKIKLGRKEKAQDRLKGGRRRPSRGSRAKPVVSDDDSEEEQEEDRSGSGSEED

Here are results for one substance from article PMC12633796.

No constants are given. Whether binding was seen depends on the method and setting. Binding seen in cells or lysates may run through a third protein. Some binding calls cover weakened binding; strength is not graded here. Tags and fused reporters may be left off the sequences shown.

On to “BRG1 (SMARCA4) (from UniProt P51532 1-1647) (enzyme)”, for which the binding result is on record as “binds”.
